Measured values: patent publication US20100298371A1, “PROCESS FOR PREPARING CHEMICALLY AND CHIRALLY PURE SOLIFENACIN BASE AND ITS SALTS” (priority 2007, published 2010)
Counter-ions that a name gives are not always drawn. Some entries share one result that the patent states for a list of compounds. Some compounds share one range, which may span the group rather than tell each member.

Assay: Pharmacokinetic profile of Solifenacin salts in fasted male Wistar rats
Format: in vivo
Details: text summary of Table 3b

Compound	Tmax (absorption, as stated in text) (hydrobromide) [h]	Tmax (absorption, as stated in text) (hydrochloride salt) [h]
O=C(O[C@H]1CN2CCC1CC2)N1CCc2ccccc2[C@@H]1c1ccccc1 [Solifenacin Hydrobromide, Solifenacin hydrobromide]	1.0 to 1.3	–
O=C(O[C@H]1CN2CCC1CC2)N1CCc2ccccc2[C@@H]1c1ccccc1 [Solifenacin Hydrochloride, (+)-(1S,3′R)-quinuclidin-3′-yl 1-phenyl-1,2,3,4-tetrahydro-isoquinoline-2-carboxylate hydrochloride salt]	–	1.0 to 1.3
